Laboratory results reported in patent US20220074941A1, “HSP90 COMBINATION THERAPY” (Sloan-Kettering Institute for Cancer Research, priority 2011, published 2022).

Tested on: Hsp90 complexes in K562 cell extract
Test: Nano-LC-MS/MS of PU-beads pull-downs
Assay type: binding
Details: for Matched Peptides by Fraction JA07: Run1, gel size cut <40; for Matched Peptides by Fraction JA14: Run2, gel size cut <40; for MAXIMUM matched peptides: maximum over fractions JA01-JA14; for Total fmol: protein isolated in PU-beads pull-downs, Waters Xevo QTof MS; for Matched Peptides by Fraction JA05: Run1, gel size cut 60-80; for Matched Peptides by Fraction JA12: Run2, gel size cut 60-80
In short: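 Proteins were identified by data-dependent nano LC-MS/MS (QTof, ESI) and Mascot searching (p<0.05), then reported as spectral counts and coverage via Scaffold. Inputs were PU-bead versus control-bead pull-downs from lysate pre-cleared with control beads overnight at 4 °C, eluted by boiling in 2% SDS.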

Molecule	Matched Peptides by Fraction JA07 (PU-beads pull-down)	Matched Peptides by Fraction JA14 (PU-beads pull-down)	MAXIMUM matched peptides (PU-beads pull-down)	Total fmol [fmol]	Matched Peptides by Fraction JA05 (PU-beads pull-down)	Matched Peptides by Fraction JA12 (PU-beads pull-down)	Matched Peptides by Fraction JA06 (PU-beads pull-down, Run1, gel size cut 40-60)	Matched Peptides by Fraction JA13 (PU-beads pull-down, Run2, gel size cut 40-60)	Matched Peptides by Fraction JA03 (PU-beads pull-down, Run1, gel size cut 110-150)	Matched Peptides by Fraction JA10 (PU-beads pull-down, Run2, gel size cut 110-150)
Calpain small subunit 1; CAPNS1 (protein, UniProt P04632 1-268, looked up) Calpain small subunit 1: MFLVNSFLKGGGGGGGGGGGLGGGLGNVLGGLISGAGGGGGGGGGGGGGGGGGGGGTAMRILGGVISAISEAAAQYNPEPPPPRTHYSNIEANESEEVRQFRRLFAQLAGDDMEVSATELMNILNKVVTRHPDLKTDGFGIDTCRSMVAVMDSDTTGKLGFEEFKYLWNNIKRWQAIYKQFDTDRSGTICSSELPGAFEAAGFHLNEHLYNMIIRRYSDESGNMDFDNFISCLVRLDAMFRAFKSLDKDGTGQIQVNIQEWLQLTMYS	9	6	9	10.0635	–	–	–	–	–	–
THUMP domain-containing protein 3 (protein, UniProt Q9BV44 1-507, looked up) tRNA …: MCDIEEATNQLLDVNLHENQKSVQVTESDLGSESELLVTIGATVPTGFEQTAADEVREKLGSSCKISRDRGKIYFVISVESLAQVHCLRSVDNLFVVVQEFQDYQFKQTKEEVLKDFEDLAGKLPWSNPLKVWKINASFKKKKAKRKKINQNSSKEKINNGQEVKIDQRNVKKEFTSHALDSHILDYYENPAIKEDVSTLIGDDLASCKDETDESSKEETEPQVLKFRVTCNRAGEKHCFTSNEAARDFGGAVQDYFKWKADMTNFDVEVLLNIHDNEVIVGIALTEESLHRRNITHFGPTTLRSTLAYGMLRLCDPLPYDIIVDPMCGTGAIPIEGATEWSDCFHIAGDNNPLAVNRAANNIASLLTKSQIKEGKPSWGLPIDAVQWDICNLPLRTGSVDIIVTDLPFGKRMGSKKRNWNLYPACLREMSRVCTPTTGRAVLLTQDTKCFTKALSGMRHVWRKVDTVWVNVGGLRAAVYVLIRTPQAFVHPSEQDGERGTLWQCKE	–	–	19	15.3092	18	19	–	–	–	–
Transforming growth factor beta regulator 4 (protein, UniProt Q969Z0 108-631, looked up) FAST kinase domain-containing …: SHLLSEKPEDKGLLIQDAHFHQLLCLLNSQIASVWHGTLSKLLGSLYALGIPKASKELQSVEQEVRWRMRKLKYKHLAFLAESCATLSQEQHSQELLAELLTHLERRWTEIEDSHTLVTVMMKVGHLSEPLMNRLEDKCLELVEHFGPNELRKVLVMLAAQSRRSVPLLRAISYHLVQKPFSLTKDVLLDVAYAYGKLSFHQTQVSQRLATDLLSLMPSLTSGEVAHCAKSFALLKWLSLPLFEAFAQHVLNRAQDITLPHLCSVLLAFARLNFHPDQEDQFFSLVHEKLGSELPGLEPALQVDLVWALCVLQQAREAELQAVLHPEFHIQFLGGKSQKDQNTFQKLLHINATALLEYPEYSGPLLPASAVAPGPSALDRKVTPLQKELQETLKGLLGSADKGSLEVATQYGWVLDAEVLLDSDGEFLPVRDFVAPHLAQPTGSQSPPPGSKRLAFLRWEFPNFNSRSKDLLGRFVLARRHIVAAGFLIVDVPFYEWLELKSEWQKGAYLKDKMRKAVAEELAK	–	–	14	7.4653	14	14	–	–	–	–
Serine protease HTRA2 (protein, UniProt O43464 134-458, looked up) Serine protease HTRA2, …: AVPSPPPASPRSQYNFIADVVEKTAPAVVYIEILDRHPFLGREVPISNGSGFVVAADGLIVTNAHVVADRRRVRVRLLSGDTYEAVVTAVDPVADIATLRIQTKEPLPTLPLGRSADVRQGEFVVAMGSPFALQNTITSGIVSSAQRPARDLGLPQTNVEYIQTDAAIDFGNSGGPLVNLDGEVIGVNTMKVTAGISFAIPSDRLREFLHRGEKKNSSSGISGSQRRYIGVMMLTLSPSILAELQLREPSFPDVQHGVLIHKVILGSPAHRAGLRPGDVILAIGEQMVQNAEDVYEAVRTQSQLAVQIRRGRETLTLYVTPEVTE	6	6	6	8.0093	–	–	–	–	–	–
Cell division control protein 45 homolog (protein, UniProt O75419 1-566, looked up) Cell division control protein …: MFVSDFRKEFYEVVQSQRVLLFVASDVDALCACKILQALFQCDHVQYTLVPVSGWQELETAFLEHKEQFHYFILINCGANVDLLDILQPDEDTIFFVCDTHRPVNVVNVYNDTQIKLLIKQDDDLEVPAYEDIFRDEEEDEEHSGNDSDGSEPSEKRTRLEEEIVEQTMRRRQRREWEARRRDILFDYEQYEYHGTSSAMVMFELAWMLSKDLNDMLWWAIVGLTDQWVQDKITQMKYVTDVGVLQRHVSRHNHRNEDEENTLSVDCTRISFEYDLRLVLYQHWSLHDSLCNTSYTAARFKLWSVHGQKRLQEFLADMGLPLKQVKQKFQAMDISLKENLREMIEESANKFGMKDMRVQTFSIHFGFKHKFLASDVVFATMSLMESPEKDGSGTDHFIQALDSLSRSNLDKLYHGLELAKKQLRATQQTIASCLCTNLVISQGPFLYCSLMEGTPDVMLFSRPASLSLLSKHLLKSFVCSTKNRRCKLLPLVMAAPLSMEHGTVTVVGIPPETDSSDRKNFFGRAFEKAAESTSSRMLHNHFDLSVIELKAEDRSKFLDALISLLS	–	–	14	13.0274	14	14	–	–	–	–
Histone acetyltransferase type B catalytic subunit; HAT1 (protein, UniProt O14929 2-419, looked up) Histone acetyltransferase …: AGFGAMEKFLVEYKSAVEKKLAEYKCNTNTAIELKLVRFPEDLENDIRTFFPEYTHQLFGDDETAFGYKGLKILLYYIAGSLSTMFRVEYASKVDENFDCVEADDVEGKIRQIIPPGFCTNTNDFLSLLEKEVDFKPFGTLLHTYSVLSPTGGENFTFQIYKADMTCRGFREYHERLQTFLMWFIETASFIDVDDERWHYFLVFEKYNKDGATLFATVGYMTVYNYYVYPDKTRPRVSQMLILTPFQGQGHGAQLLETVHRYYTEFPTVLDITAEDPSKSYVKLRDFVLVKLCQDLPCFSREKLMQGFNEDMVIEAQQKFKINKQHARRVYEILRLLVTDMSDAEQYRSYRLDIKRRLISPYKKKQRDLAKMRKCLRPEELTNQMNQIEISMQHEQLEESFQELVEDYRRVIERLAQE	–	–	18	10.9424	–	–	4	18	–	–
5′-AMP-activated protein kinase catalytic subunit alpha-1; PRKAA1 (protein, UniProt Q13131 1-559, looked up) 5'-AMP-activated protein …: MRRLSSWRKMATAEKQKHDGRVKIGHYILGDTLGVGTFGKVKVGKHELTGHKVAVKILNRQKIRSLDVVGKIRREIQNLKLFRHPHIIKLYQVISTPSDIFMVMEYVSGGELFDYICKNGRLDEKESRRLFQQILSGVDYCHRHMVVHRDLKPENVLLDAHMNAKIADFGLSNMMSDGEFLRTSCGSPNYAAPEVISGRLYAGPEVDIWSSGVILYALLCGTLPFDDDHVPTLFKKICDGIFYTPQYLNPSVISLLKHMLQVDPMKRATIKDIREHEWFKQDLPKYLFPEDPSYSSTMIDDEALKEVCEKFECSEEEVLSCLYNRNHQDPLAVAYHLIIDNRRIMNEAKDFYLATSPPDSFLDDHHLTRPHPERVPFLVAETPRARHTLDELNPQKSKHQGVRKAKWHLGIRSQSRPNDIMAEVCRAIKQLDYEWKVVNPYYLRVRRKNPVTSTYSKMSLQLYQVDSRTYLLDFRSIDDEITEAKSGTATPQRSGSVSNYRSCQRSDSDAEAQGKSSEVSLTSSVTSLDSSPVDLTPRPGSHTIEFFEMCANLIKILAQ	–	–	12	11.2910	12	9	–	–	–	–
N-acetyltransferase 10; NAT10 (protein, UniProt Q9H0A0 1-1025, looked up) RNA cytidine acetyltransferase: MHRKKVDNRIRILIENGVAERQRSLFVVVGDRGKDQVVILHHMLSKATVKARPSVLWCYKKELGFSSHRKKRMRQLQKKIKNGTLNIKQDDPFELFIAATNIRYCYYNETHKILGNTFGMCVLQDFEALTPNLLARTVETVEGGGLVVILLRTMNSLKQLYTVTMDVHSRYRTEAHQDVVGRFNERFILSLASCKKCLVIDDQLNILPISSHVATMEALPPQTPDESLGPSDLELRELKESLQDTQPVGVLVDCCKTLDQAKAVLKFIEGISEKTLRSTVALTAARGRGKSAALGLAIAGAVAFGYSNIFVTSPSPDNLHTLFEFVFKGFDALQYQEHLDYEIIQSLNPEFNKAVIRVNVFREHRQTIQYIHPADAVKLGQAELVVIDEAAAIPLPLVKSLLGPYLVFMASTINGYEGTGRSLSLKLIQQLRQQSAQSQVSTTAENKTTTTARLASARTLYEVSLQESIRYAPGDAVEKWLNDLLCLDCLNITRIVSGCPLPEACELYYVNRDTLFCYHKASEVFLQRLMALYVASHYKNSPNDLQMLSDAPAHHLFCLLPPVPPTQNALPEVLAVIQVCLEGEISRQSILNSLSRGKKASGDLIPWTVSEQFQDPDFGGLSGGRVVRIAVHPDYQGMGYGSRALQLLQMYYEGRFPCLEEKVLETPQEIHTVSSEAVSLLEEVITPRKDLPPLLLKLNERPAERLDYLGVSYGLTPRLLKFWKRAGFVPVYLRQTPNDLTGEHSCIMLKTLTDEDEADQGGWLAAFWKDFRRRFLALLSYQFSTFSPSLALNIIQNRNMGKPAQPALSREELEALFLPYDLKRLEMYSRNMVDYHLIMDMIPAISRIYFLNQLGDLALSAAQSALLLGIGLQHKSVDQLEKEIELPSGQLMGLFNRIIRKVVKLFNEVQEKAIEEQMVAAKDVVMEPTMKTLSDDLDEAAKEFQEKHKKEVGKLKSMDLSEYIIRGDDEEWNEVLNKAGPNASIISLKSDKKRKLEAKQEPKQSKKLKNRETKNKKDMKLKRKK	–	–	14	3.0039	–	–	–	–	4	14
